Source: the supplement of paper PMC7661543
± gives the standard deviation of the averaged measurements. The effect of the compound repeats well; differences between the knockouts mostly do not.

Test system: BT-20
Experiment: relative cell number vs DMSO control (72 h) (% of DMSO); higher = less growth inhibition (more cells)
Experimental: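 QMAP-Seq: a pool of 5 breast cancer cell lines (ZR-75-1, SKBR3, HCC-38, MDA-MB-231, BT-20), each carrying 12 doxycycline-inducible Cas9 sgRNA perturbations (11 knockouts plus non-targeting sgNT), was treated with compounds for 72 h at four 10-fold doses (10 nM-10 uM or 1 nM-1 uM range). Barcodes were amplified and sequenced, and cell number was interpolated from 293T spike-in standard curves. The result is expressed as % of the median of DMSO wells. Two biological replicates.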

[1] = sgRNA knockout: sgATF3, 1000 nM
[2] = sgRNA knockout: sgATF3, 10000 nM
[3] = sgRNA knockout: sgATF4, 1000 nM
[4] = sgRNA knockout: sgATF4, 10000 nM
[5] = sgRNA knockout: sgATF6, 1000 nM
[6] = sgRNA knockout: sgATF6, 10000 nM
[7] = sgRNA knockout: sgATG7, 1000 nM
[8] = sgRNA knockout: sgATG7, 10000 nM
[9] = sgRNA knockout: sgERN1, 1000 nM
[10] = sgRNA knockout: sgERN1, 10000 nM
[11] = sgRNA knockout: sgHSF1, 1000 nM
[12] = sgRNA knockout: sgHSF1, 10000 nM
[13] = sgRNA knockout: sgHSF2, 1000 nM
[14] = sgRNA knockout: sgHSF2, 10000 nM
[15] = sgRNA knockout: sgKEAP1, 100 nM
[16] = sgRNA knockout: sgKEAP1, 1000 nM
[17] = sgRNA knockout: sgKEAP1, 10000 nM
[18] = sgRNA knockout: sgNFE2L2, 10 nM
[19] = sgRNA knockout: sgNFE2L2, 100 nM
[20] = sgRNA knockout: sgNFE2L2, 1000 nM
[21] = sgRNA knockout: sgNFE2L2, 10000 nM
[22] = sgRNA knockout: sgSLC35F2, 10 nM
[23] = sgRNA knockout: sgSLC35F2, 100 nM
[24] = sgRNA knockout: sgSLC35F2, 1000 nM
[25] = sgRNA knockout: sgSLC35F2, 10000 nM
[26] = sgRNA knockout: sgXBP1, 1000 nM
[27] = sgRNA knockout: sgXBP1, 10000 nM

O=C(Nc1ccc([N+](=O)[O-])cc1Cl)c1cc(Cl)ccc1O [Niclosamide]
relative cell number (sgRNA knockout: sgATF3, 10 nM): 87.8 ± 11
relative cell number (sgRNA knockout: sgATF3, 100 nM): 102 ± 7.1
relative cell number [1]: 103 ± 16
relative cell number [2]: 53.5 ± 9.6
relative cell number (sgRNA knockout: sgATF4, 10 nM): 107 ± 23
relative cell number (sgRNA knockout: sgATF4, 100 nM): 101 ± 24
relative cell number [3]: 91.5 ± 2.8
relative cell number [4]: 55.8 ± 4.8
relative cell number (sgRNA knockout: sgATF6, 10 nM): 95.2 ± 17
relative cell number (sgRNA knockout: sgATF6, 100 nM): 102 ± 5
relative cell number [5]: 94.8 ± 11
relative cell number [6]: 57.6 ± 6.6
relative cell number (sgRNA knockout: sgATG7, 10 nM): 99.9 ± 40
relative cell number (sgRNA knockout: sgATG7, 100 nM): 116 ± 20
relative cell number [7]: 115 ± 15
relative cell number [8]: 59.3 ± 1.3
relative cell number (sgRNA knockout: sgERN1, 10 nM): 96.1 ± 30
relative cell number (sgRNA knockout: sgERN1, 100 nM): 110 ± 3.2
relative cell number [9]: 120 ± 25
relative cell number [10]: 56.1 ± 4
relative cell number (sgRNA knockout: sgHSF1, 10 nM): 100 ± 8.6
relative cell number (sgRNA knockout: sgHSF1, 100 nM): 92.5 ± 25
relative cell number [11]: 99.4 ± 6.5
relative cell number [12]: 53.6 ± 9.3
relative cell number (sgRNA knockout: sgHSF2, 10 nM): 89.8 ± 13
relative cell number (sgRNA knockout: sgHSF2, 100 nM): 99.7 ± 6.8
relative cell number [13]: 106 ± 8.4
relative cell number [14]: 72.4 ± 3.4
relative cell number (sgRNA knockout: sgKEAP1, 10 nM): 95.5 ± 11
relative cell number [15]: 101 ± 29
relative cell number [16]: 94.3 ± 5.9
relative cell number [17]: 52.4 ± 2.4
relative cell number [18]: 103 ± 9.5
relative cell number [19]: 113 ± 6.5
relative cell number [20]: 99.1 ± 5.4
relative cell number [21]: 66.8 ± 6.6
relative cell number [22]: 91.7 ± 1.2
relative cell number [23]: 102 ± 18
relative cell number [24]: 94.9 ± 9.7
relative cell number [25]: 58.6 ± 10
relative cell number (sgRNA knockout: sgXBP1, 10 nM): 104 ± 42
relative cell number (sgRNA knockout: sgXBP1, 100 nM): 109 ± 13
relative cell number [26]: 109 ± 32
relative cell number [27]: 48.5 ± 0.57

NC(=O)Nc1sc(-c2ccc(F)cc2)cc1C(N)=O [TPCA1]
relative cell number (sgRNA knockout: sgATF3, 10 nM): 95.97 ± 0.26
relative cell number (sgRNA knockout: sgATF3, 100 nM): 97.3 ± 9.8
relative cell number [1]: 113 ± 16
relative cell number [2]: 74.4 ± 11
relative cell number (sgRNA knockout: sgATF4, 10 nM): 101 ± 5
relative cell number (sgRNA knockout: sgATF4, 100 nM): 108 ± 10
relative cell number [3]: 114 ± 18
relative cell number [4]: 72.8 ± 3.8
relative cell number (sgRNA knockout: sgATF6, 10 nM): 103 ± 18
relative cell number (sgRNA knockout: sgATF6, 100 nM): 91.2 ± 5.5
relative cell number [5]: 113 ± 9.7
relative cell number [6]: 68.3 ± 1.8
relative cell number (sgRNA knockout: sgATG7, 10 nM): 109 ± 2.1
relative cell number (sgRNA knockout: sgATG7, 100 nM): 101 ± 6.4
relative cell number [7]: 107 ± 5
relative cell number [8]: 68 ± 4.5
relative cell number (sgRNA knockout: sgERN1, 10 nM): 106 ± 3.4
relative cell number (sgRNA knockout: sgERN1, 100 nM): 87.9 ± 6.1
relative cell number [9]: 99.3 ± 5.9
relative cell number [10]: 68.5 ± 11
relative cell number (sgRNA knockout: sgHSF1, 10 nM): 103 ± 4.5
relative cell number (sgRNA knockout: sgHSF1, 100 nM): 99.6 ± 10
relative cell number [11]: 116 ± 23
relative cell number [12]: 66.8 ± 5.2
relative cell number (sgRNA knockout: sgHSF2, 10 nM): 108 ± 14
relative cell number (sgRNA knockout: sgHSF2, 100 nM): 96.4 ± 4.5
relative cell number [13]: 105 ± 32
relative cell number [14]: 69.41 ± 0.11
relative cell number (sgRNA knockout: sgKEAP1, 10 nM): 108 ± 8.4
relative cell number [15]: 98.1 ± 9.3
relative cell number [16]: 107 ± 16
relative cell number [17]: 66.4 ± 8
relative cell number [18]: 122 ± 12
relative cell number [19]: 104 ± 24
relative cell number [20]: 106 ± 24
relative cell number [21]: 78 ± 7.9
relative cell number [22]: 111 ± 4.1
relative cell number [23]: 105 ± 20
relative cell number [24]: 93.63 ± 0.73
relative cell number [25]: 79.4 ± 17
relative cell number (sgRNA knockout: sgXBP1, 10 nM): 110 ± 7
relative cell number (sgRNA knockout: sgXBP1, 100 nM): 105 ± 17
relative cell number [26]: 120 ± 7.7
relative cell number [27]: 76.7 ± 5

CC(C)C[C@H](NC(=O)[C@H](CCc1ccccc1)NC(=O)CN1CCOCC1)C(=O)N[C@@H](Cc1ccccc1)C(=O)N[C@@H](CC(C)C)C(=O)[C@@]1(C)CO1 [Carfilzomib]
relative cell number (sgRNA knockout: sgATF3, 1 nM): 88.3 ± 4.2
relative cell number (sgRNA knockout: sgATF3, 10 nM): 72 ± 6.8
relative cell number (sgRNA knockout: sgATF3, 100 nM): 20.8 ± 3
relative cell number [1]: 14.4 ± 3.8
relative cell number (sgRNA knockout: sgATF4, 1 nM): 92.5 ± 8.9
relative cell number (sgRNA knockout: sgATF4, 10 nM): 80.8 ± 5.8
relative cell number (sgRNA knockout: sgATF4, 100 nM): 24.3 ± 9.4
relative cell number [3]: 9.44 ± 6.9
relative cell number (sgRNA knockout: sgATF6, 1 nM): 80.6 ± 5.5
relative cell number (sgRNA knockout: sgATF6, 10 nM): 78.3 ± 13
relative cell number (sgRNA knockout: sgATF6, 100 nM): 20.1 ± 5.1
relative cell number [5]: 14.5 ± 4.3
relative cell number (sgRNA knockout: sgATG7, 1 nM): 86.6 ± 1.3
relative cell number (sgRNA knockout: sgATG7, 10 nM): 85.1 ± 4.8
relative cell number (sgRNA knockout: sgATG7, 100 nM): 24.7 ± 3.6
relative cell number [7]: 13.5 ± 6.8
relative cell number (sgRNA knockout: sgERN1, 1 nM): 88.3 ± 13
relative cell number (sgRNA knockout: sgERN1, 10 nM): 77 ± 8.5
relative cell number (sgRNA knockout: sgERN1, 100 nM): 24.4 ± 1
relative cell number [9]: 12.6 ± 6.4
relative cell number (sgRNA knockout: sgHSF1, 1 nM): 76.7 ± 8.9
relative cell number (sgRNA knockout: sgHSF1, 10 nM): 81.3 ± 4.2
relative cell number (sgRNA knockout: sgHSF1, 100 nM): 19 ± 4.3
relative cell number [11]: 9.71 ± 5.1
relative cell number (sgRNA knockout: sgHSF2, 1 nM): 92.09 ± 0.43
relative cell number (sgRNA knockout: sgHSF2, 10 nM): 82.5 ± 19
relative cell number (sgRNA knockout: sgHSF2, 100 nM): 21.8 ± 3.3
relative cell number [13]: 8.05 ± 0.48
relative cell number (sgRNA knockout: sgKEAP1, 1 nM): 94.8 ± 4.1
relative cell number (sgRNA knockout: sgKEAP1, 10 nM): 79.7 ± 7
relative cell number [15]: 22.5 ± 3.3
relative cell number [16]: 13.7 ± 2.6
relative cell number (sgRNA knockout: sgNFE2L2, 1 nM): 72.2 ± 2.9
relative cell number [18]: 82.7 ± 22
relative cell number [19]: 17.1 ± 3.7
relative cell number [20]: 9.61 ± 4.5
relative cell number (sgRNA knockout: sgSLC35F2, 1 nM): 71.6 ± 22
relative cell number [22]: 82.96 ± 0.18
relative cell number [23]: 19.9 ± 1.6
relative cell number [24]: 11.1 ± 5.8
relative cell number (sgRNA knockout: sgXBP1, 1 nM): 88.9 ± 13
relative cell number (sgRNA knockout: sgXBP1, 10 nM): 82.8 ± 4.2
relative cell number (sgRNA knockout: sgXBP1, 100 nM): 20 ± 3.9
relative cell number [26]: 9.92 ± 1.1
